Test results from the supplement of paper PMC3334620.
In all, about 33,000 sequences were measured (“E-score (-0.5 to 0.5)”: median about -0.0034, highest 2% from about 0.25 on). This is one part of the list.

molecular target: T1, Yap3 (UniProt P38749); assay: PBM E-score (8-mer binding enrichment) (E-score (-0.5 to 0.5)); higher = stronger / more preferred TF binding; conditions: protein concentration: 100 nM; construct: GST-full length
T1 sequence: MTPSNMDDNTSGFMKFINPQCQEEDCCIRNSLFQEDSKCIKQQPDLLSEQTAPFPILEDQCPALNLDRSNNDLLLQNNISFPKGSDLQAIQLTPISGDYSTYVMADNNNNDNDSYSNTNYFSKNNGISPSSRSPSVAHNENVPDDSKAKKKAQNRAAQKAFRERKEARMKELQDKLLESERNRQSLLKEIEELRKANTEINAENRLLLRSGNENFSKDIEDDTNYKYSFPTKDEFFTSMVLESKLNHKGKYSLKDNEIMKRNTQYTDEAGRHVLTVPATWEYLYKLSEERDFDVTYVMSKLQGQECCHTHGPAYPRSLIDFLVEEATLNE
In short: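 The E-score, a modified Wilcoxon-Mann-Whitney statistic, was computed by the Universal PBM Analysis Suite for every ungapped eight-base word pooled with its reverse complement. Scans behind it were normalised with masliner after bound GST-tagged yeast transcription factors were detected with fluorescent anti-GST. The proteins, at about 100-200 nM, had been applied to universal all-10-mer Agilent arrays made double-stranded by primer extension.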

Compared with ATTTGACC, ACCATGAC is higher in “PBM E-score” value: 0.0587 for the first, 0.147 for the second.

Going from AAGTCTAG to GCGGAAAA, the “PBM E-score” value rises from -0.231 to 0.245.

First: GCACCTGA
Second: GCAAGGAC
The “PBM E-score” value of the first is higher: -0.0023 for the first, -0.15 for the second.

Compared with AAGACAAC, AGATGAGA is lower in “PBM E-score” value: 0.267 for the first, -0.021 for the second.

Going from AATCTAAA to CTGATATC, the “PBM E-score” value falls from 0.101 to 0.0122.

Going from AACGATGG to ACAGAACT, the “PBM E-score” value falls from 0.0615 to 0.0358.

First: ACCCTGAT
Second: AGGAGTCC
The “PBM E-score” value of the first is higher: -0.119 for the first, -0.276 for the second.

First: ATGGGTGC
Second: CTTCGTGA
The “PBM E-score” value of the first is lower: -0.0138 for the first, 0.034 for the second.

Going from CAACCGAC to CTGCACAA, the “PBM E-score” value falls from 0.185 to 0.00617.

Going from AGCACACA to AGGATCTC, the “PBM E-score” value falls from -0.0965 to -0.103.

Going from AAACACTC to CTGTTCCA, the “PBM E-score” value falls from 0.0568 to -0.0015.

Going from AAGCAGGC to TCTGCACA, the “PBM E-score” value rises from -0.251 to -0.00606.

Going from GACTGTTA to CCGAGTTA, the “PBM E-score” value falls from -0.00308 to -0.0387.

Compared with ATCATCCG, TCGGCACA is higher in “PBM E-score” value: -0.162 for the first, -0.0859 for the second.

Compared with ACCCGGCT, GACGGCCC is lower in “PBM E-score” value: -0.186 for the first, -0.253 for the second.

Compared with CCTGCGCG, CCGCCTCA is lower in “PBM E-score” value: -0.0131 for the first, -0.248 for the second.

Going from AGAAGGGG to CATCCTTA, the “PBM E-score” value rises from -0.259 to -0.00117.

First: GAAATCTC
Second: GGCCGTCA
The “PBM E-score” value of the first is higher: -0.052 for the first, -0.164 for the second.

Compared with ATTGACTA, CCAGGGAG is lower in “PBM E-score” value: 0.0294 for the first, -0.292 for the second.

First: CTCTTGGA
Second: GTCTCCCA
The “PBM E-score” value of the first is higher: -0.0892 for the first, -0.175 for the second.

First: ATTTGATG
Second: CCACCATA
The “PBM E-score” value of the first is higher: 0.106 for the first, -0.033 for the second.

Compared with ACGCTCTG, ACATTCAC is higher in “PBM E-score” value: -0.186 for the first, 0.147 for the second.

First: CGAAGATA
Second: ACGTTAAC
The “PBM E-score” value of the first is higher: 0.194 for the first, 0.109 for the second.

Compared with ACGTCGGA, ACAGCTGA is lower in “PBM E-score” value: -0.085 for the first, -0.116 for the second.

First: AGAATTAT
Second: ACCAACCC
The “PBM E-score” value of the first is higher: 0.197 for the first, -0.124 for the second.

Going from CGCGCCGC to CATGGACG, the “PBM E-score” value falls from -0.0149 to -0.0677.

Going from CTGTGCCA to CGCTCCCG, the “PBM E-score” value rises from -0.119 to -0.104.

Compared with GGAGCTGA, AGTCGGGC is higher in “PBM E-score” value: -0.203 for the first, -0.0272 for the second.

Compared with ACTGCTCC, AAGTCACC is higher in “PBM E-score” value: -0.0513 for the first, -0.032 for the second.

First: CTAAGCTA
Second: AACGCGTG
The “PBM E-score” value of the first is higher: 0.0576 for the first, 0.019 for the second.

Going from CTTAAAAA to AGGTTCAG, the “PBM E-score” value falls from 0.0828 to -0.0303.

First: CTTCCTCC
Second: GATGGTCA
The “PBM E-score” value of the first is lower: -0.358 for the first, -0.144 for the second.

First: CCGAACGC
Second: ACACGAGG
The “PBM E-score” value of the first is higher: 0.0206 for the first, -0.0923 for the second.

Compared with AAATCAGG, CCAGAGGA is lower in “PBM E-score” value: -0.00912 for the first, -0.18 for the second.

First: AAGGGTAA
Second: GAATGGAA
The “PBM E-score” value of the first is lower: -0.0358 for the first, 0.131 for the second.

Going from GGATCGGA to CCTCCGAG, the “PBM E-score” value falls from -0.033 to -0.174.

Compared with TGCAAGAA, CTTAGATC is lower in “PBM E-score” value: 0.157 for the first, -0.0222 for the second.

Compared with CTGAACAA, CGAAATCG is lower in “PBM E-score” value: 0.172 for the first, 0.125 for the second.

First: CCTGATGC
Second: AACCCATT
The “PBM E-score” value of the first is lower: -0.00412 for the first, 0.16 for the second.

Going from GGTGACTA to ACGGCTAG, the “PBM E-score” value falls from -0.00115 to -0.141.

Going from CGGCCAGA to ACTGTATG, the “PBM E-score” value rises from -0.0173 to 0.0595.

Going from TGCGAGCA to CAATATAA, the “PBM E-score” value rises from 0.0642 to 0.307.

Going from CGTACGGC to ATATAACG, the “PBM E-score” value rises from -0.0609 to 0.237.

Compared with GGGATCCA, CACGTCAC is higher in “PBM E-score” value: -0.0652 for the first, 0.0561 for the second.

First: CGTGTAGA
Second: AAGAGTCG
The “PBM E-score” value of the first is lower: -0.00178 for the first, 0.141 for the second.

Compared with AGGTGACG, CCCGAGAA is higher in “PBM E-score” value: -0.109 for the first, 0.0338 for the second.

First: ATACCCAG
Second: ATTGAACA
The “PBM E-score” value of the first is lower: -0.0813 for the first, 0.0824 for the second.

Going from ATTGTCGC to ATATGAGG, the “PBM E-score” value rises from 0.0675 to 0.0877.

Compared with CGCAGCGA, CGCGCGTC is higher in “PBM E-score” value: -0.0766 for the first, 0.169 for the second.

Going from CGCAGGCC to AAGCAGTG, the “PBM E-score” value rises from -0.0949 to -0.0579.

Going from CGAAGCCC to GGCCACAA, the “PBM E-score” value rises from -0.178 to -0.062.

Compared with GAAACGGA, CGGCTAAG is lower in “PBM E-score” value: 0.17 for the first, -0.103 for the second.

Compared with AAAGCTAG, CTCGAGGC is higher in “PBM E-score” value: -0.0378 for the first, -0.0169 for the second.

Going from GGGTCCCA to CCGGCACG, the “PBM E-score” value rises from -0.199 to -0.163.

Going from CCCCGCAG to CCTCTATA, the “PBM E-score” value rises from -0.202 to -0.0402.

First: ACGAAAAA
Second: AATGTCGA
The “PBM E-score” value of the first is lower: 0.0676 for the first, 0.183 for the second.

Compared with GGAAGAAC, CGTTCGAG is lower in “PBM E-score” value: 0.126 for the first, -0.0172 for the second.

Compared with ACCACGGC, CGACGACA is higher in “PBM E-score” value: -0.116 for the first, -0.011 for the second.

First: AGGAGTCA
Second: TCTGTTCA
The “PBM E-score” value of the first is lower: 0.00727 for the first, 0.0596 for the second.

Going from CTATAGGA to ATCCTCCA, the “PBM E-score” value rises from -0.0851 to -0.03.

Going from ACGACTAC to GCTGTGAC, the “PBM E-score” value falls from -0.0945 to -0.0962.

First: CGATTGAG
Second: ACTATGAG
The “PBM E-score” value of the first is higher: 0.0236 for the first, 0.0203 for the second.

Compared with GAATTATA, CTACTACA is lower in “PBM E-score” value: 0.237 for the first, 0.225 for the second.

Going from ACACCCCA to CAACAGTG, the “PBM E-score” value rises from -0.0392 to 0.0952.

First: AAATGCGA
Second: CGGGCTTC
The “PBM E-score” value of the first is higher: 0.101 for the first, -0.252 for the second.

First: ACAGGAAC
Second: TTCATAAA
The “PBM E-score” value of the first is higher: 0.12 for the first, 0.0945 for the second.

First: GGCGACGA
Second: CCGCCTCG
The “PBM E-score” value of the first is lower: -0.153 for the first, 0.0846 for the second.

Compared with ACCCACGG, AGGTTGTA is higher in “PBM E-score” value: -0.306 for the first, 0.163 for the second.

Compared with ACGTGGCA, ACACTACG is higher in “PBM E-score” value: -0.251 for the first, 0.014 for the second.

Compared with CAATTGTC, AGTGTCGA is lower in “PBM E-score” value: 0.225 for the first, -0.0703 for the second.

First: ATCTCGGA
Second: GACTTATA
The “PBM E-score” value of the first is lower: 0.0763 for the first, 0.196 for the second.

First: GCATTGTA
Second: CCGTGCCA
The “PBM E-score” value of the first is higher: -0.0355 for the first, -0.172 for the second.

Compared with CACGAAAC, GGCAAAAC is lower in “PBM E-score” value: 0.00245 for the first, -0.0314 for the second.

Compared with TCATCCGA, CCTCCAAC is lower in “PBM E-score” value: 0.117 for the first, 0.111 for the second.

Compared with CACAGAAG, ACGATATA is higher in “PBM E-score” value: -0.0867 for the first, 0.131 for the second.

First: ACATGCTC
Second: TAATGGGA
The “PBM E-score” value of the first is higher: -0.0428 for the first, -0.0698 for the second.

First: ATATAAGC
Second: CCGACGCG
The “PBM E-score” value of the first is higher: 0.0573 for the first, -0.0691 for the second.

Compared with TAGCAGCA, ATAAAAGG is lower in “PBM E-score” value: 0.00637 for the first, -0.011 for the second.

Compared with GAAATTTA, AGTCCAAG is lower in “PBM E-score” value: 0.161 for the first, -0.145 for the second.

First: TCTATTAA
Second: GGAAAGAC
The “PBM E-score” value of the first is higher: 0.188 for the first, -0.0223 for the second.

Compared with GCAATACC, CCTAAGCG is lower in “PBM E-score” value: 0.0796 for the first, -0.033 for the second.

First: GCTGGTGA
Second: GCGACCTA
The “PBM E-score” value of the first is higher: 0.0756 for the first, -0.0637 for the second.

Compared with AGGACAAC, ATTACAGG is higher in “PBM E-score” value: 0.0469 for the first, 0.268 for the second.

Going from ATGACAGA to GTTAGCCA, the “PBM E-score” value falls from 0.137 to 0.0109.

Going from AACTACGT to ACATATAA, the “PBM E-score” value rises from 0.0416 to 0.29.

First: CTTGCGGA
Second: ATGTGTGC
The “PBM E-score” value of the first is lower: -0.11 for the first, -0.0436 for the second.
